The supplement of paper PMC5949888
Most values lie at the floor of the assay. Slopes are relative: functional sequences can read slightly below zero.

The substances below were run on Saccharomyces cerevisiae PS128 hsf1 delta, HSF1(1-493) fusion (assay: growth estimate (transactivation domain function in HSF1 fusion, heat-shock survival) (a.u. (slope of normalised read count over time)); higher = stronger growth at 37°C, i.e. more transactivation activity). Details: library: random library.
With WVDSSLRVIATIVRAYLITS the growth estimate was < -0.25. SMVTGQA was tested, and the growth estimate was < -0.25. In the case of HLNLGSVRALIQLASTLLAV, the growth estimate is reported as < -0.25. GPDVV was tested, and the growth estimate was < -0.25. For LGERRIVVCETSLRHN, the growth estimate was < -0.25. For GMNGPPYHGPVGMWPQMRSQ, the growth estimate was < -0.25. In the case of HSRDDILDLVQRGMVWGM, the growth estimate is reported as < -0.25. For TMEWSSPVK, the growth estimate was < -0.25. In the case of NDVDYTIIDAACDQAGHSAA, the growth estimate is reported as < -0.25. GTVILPFRVQWVRGRIRRPP was tested, and the growth estimate was < -0.25. For AGEIKCSVF, the growth estimate was < -0.25. In the case of ARGKFIAVSVEVTRCRGALI, the growth estimate is reported as < -0.25. HLQRRTAH was tested, and the growth estimate was < -0.25. For SFLS, the growth estimate was < -0.25. For HENG, the growth estimate was < -0.25. With AWHRRGGKVTLEE the growth estimate was < -0.25. For MDFFIASLGPLSTHKLCNRD, the growth estimate was < -0.25. With TLESKAYKASRLEYNTESGK the growth estimate was < -0.25. STVGAKGAAHDLWQEVRPCD was tested, and the growth estimate was < -0.25. LVGSSKVQLCFGSISDEQVC was tested, and the growth estimate was < -0.25. For RDAV, the growth estimate was < -0.25. For AEVDVAIMERLMARVIVPM, the growth estimate was < -0.25. VTERVRYRMYLPPALRYRAS gave a growth estimate of -0.231. GLSGSVVAVYLKFEVGTYKE was tested, and the growth estimate was < -0.25. CPLHRELFREPATTLDSSAT was tested, and the growth estimate was < -0.25. In the case of VDQEHIIVATSFWLY, the growth estimate is reported as < -0.25. With CSKRMRLQIT the growth estimate was < -0.25. In the case of GETWRRLFSSISAWSLPDIR, the growth estimate is reported as < -0.25. In the case of VYPF, the growth estimate is reported as < -0.25. With IQTPCFGSPRDCKRKRSFLD the growth estimate was < -0.25. With SGLSKSAAPIIGKQAEPSRL the growth estimate was < -0.25. For NGDE, the growth estimate was < -0.25. VQLAFSEAGKSAGREFSSQA gave a growth estimate of -0.243. In the case of GIGSHSITGYSSTLTPSWAR, the growth estimate is reported as < -0.25. With VENFPGYLVDHIWREAYSP the growth estimate was < -0.25. With VEGPTGA the growth estimate was < -0.25. With CSAR the growth estimate was < -0.25. For ASMSGRRYHQA, the growth estimate was < -0.25. For KRQYSG, the growth estimate was < -0.25. With TSDTAALMSAHFELCP the growth estimate was < -0.25. With TRIMFDSGDYLIPVKPYAQR the growth estimate was < -0.25. With ASKVRAGHFPVYELLFGIVS the growth estimate was < -0.25. For RPAFIKEGSTCVIQPRQGGY, the growth estimate was < -0.25. LQLNFTSELITRKDSSVVYE was tested, and the growth estimate was < -0.25. For RNHVK, the growth estimate was < -0.25. In the case of VRTVIGFGAWRLSH, the growth estimate is reported as < -0.25. With GSSEHPPLH the growth estimate was < -0.25. For SEG, the growth estimate was < -0.25. In the case of HCPGLVCINALSDNGYDLRP, the growth estimate is reported as < -0.25. RSTRKVCDRPTYVRWLASEA was tested, and the growth estimate was < -0.25. For LAKYGAGSQGIHPSL, the growth estimate was < -0.25. RRLVETGAHVGDPNRRGSSN was tested, and the growth estimate was < -0.25. Substance WWVIESDNRAL has a growth estimate of -0.228. For RQLT, the growth estimate was < -0.25. In the case of GVNNPCD, the growth estimate is reported as < -0.25. In the case of RLRAWEGNVEKPTFTAGGRP, the growth estimate is reported as < -0.25. For RAGVVQWVVQSASEGRRFHW, the growth estimate was < -0.25. PELRLRDKQVTRPSRVS was tested, and the growth estimate was < -0.25. In the case of GSDWPQGCPPGISYHSGRAT, the growth estimate is reported as < -0.25. With NGSGFKNCRIWASRFWMKVA the growth estimate was < -0.25. In the case of DSYDFLDRYSFQGCGSATSR, the growth estimate is reported as -0.245. With PLVTGRGSSLLARWVRRNYG the growth estimate was < -0.25. In the case of NMI, the growth estimate is reported as < -0.25. With DCARW the growth estimate was < -0.25. With VPRRNTPVRYTL the growth estimate was < -0.25. With GTSPLWRVSPAA the growth estimate was < -0.25. TTQNHFDRLGLTIKR was tested, and the growth estimate was < -0.25. For RKAHSSCHSRLWMFLCEWIT, the growth estimate was < -0.25. For TVERRVSFWASGLECWPLIW, the growth estimate was < -0.25. For LPLAKSHRKWAAWKRSLTLD, the growth estimate was < -0.25. RLRAKRAECLLLLRGTY was tested, and the growth estimate was < -0.25. HNSFGRPVPGAY was tested, and the growth estimate was < -0.25. For HVRDKGKDR, the growth estimate was < -0.25. With MSLHGHLPPPVGDIRTPLTL the growth estimate was < -0.25. QRDLTLWTPY was tested, and the growth estimate was < -0.25. With GRSVMGIIVARAQARS the growth estimate was < -0.25. With GLILRREEELPGYGC the growth estimate was -0.245. IRPEVALEGCGIHSNQGDRS was tested, and the growth estimate was < -0.25. With VHLIH the growth estimate was < -0.25. In the case of LAQALRYSRRGVLRSTTTGP, the growth estimate is reported as < -0.25. For LGIVSYARANEKACLSQVNM, the growth estimate was < -0.25. With PSRTLSLANCKTYEAVRPQI the growth estimate was < -0.25. KNSSPSAP was tested, and the growth estimate was < -0.25. For VVSLSRAQEWLSPPMVMRDP, the growth estimate was < -0.25. In the case of PDH, the growth estimate is reported as < -0.25. TRGVAMPQNHSDTGRLSTRQ was tested, and the growth estimate was -0.246. With TGCRPYTSPQLTYGQILAKS the growth estimate was < -0.25. With FLQRI the growth estimate was < -0.25. In the case of CTRSEL, the growth estimate is reported as < -0.25. LLSLYDTRGLQCICAWPISS was tested, and the growth estimate was < -0.25. Substance CRQGYYGLYL has a growth estimate of -0.137. With LWV the growth estimate was < -0.25. DHSQLIANNKVVSAPLRAMG was tested, and the growth estimate was < -0.25. With QTRLDPDNSITYRG the growth estimate was < -0.25. For QLLFTVPVYSLYISRTRIIS, the growth estimate was < -0.25. CVQ was tested, and the growth estimate was < -0.25. With YRGRLLNVTYC the growth estimate was < -0.25. With LGIVCRSIGGRVTKLASVGS the growth estimate was < -0.25. With FLMPEDLV the growth estimate was < -0.25. For ASVTSFSLSQLRRSVSDVDP, the growth estimate was < -0.25. In the case of AQASMPGHPEAYTIPVLRRP, the growth estimate is reported as < -0.25. RFTLRGVTDPGIHIDTSLLV was tested, and the growth estimate was < -0.25. RVGQSWSPGLSPGIINWPGY was tested, and the growth estimate was < -0.25. APVGVGTAECLTSVVILCVR was tested, and the growth estimate was < -0.25. AHGD was tested, and the growth estimate was < -0.25. In the case of PTPSYK, the growth estimate is reported as < -0.25. SPSPRTLLRRAKGVDHHRLA was tested, and the growth estimate was < -0.25. RVELRR was tested, and the growth estimate was < -0.25. For IER, the growth estimate was < -0.25. With LFLESGKPESVPAAPSGLAR the growth estimate was < -0.25. GLRRA was tested, and the growth estimate was < -0.25. For YPTVPGTCWGCRVELLVSRR, the growth estimate was < -0.25. For EHNLGSGSSCNKLERAVHAE, the growth estimate was < -0.25. In the case of SHEGCESTGLPQHAVFYLLA, the growth estimate is reported as < -0.25. With KTSSPVPAVDG the growth estimate was < -0.25. GPTCIQSSFSWGRRPRTCTV was tested, and the growth estimate was < -0.25. With EPKLLIDTVVSRMKSTKPRL the growth estimate was < -0.25. In the case of RGRSVQLLLLIVVGGQNLNL, the growth estimate is reported as < -0.25. LCPSVTVVKGVTQTHPLLPA was tested, and the growth estimate was -0.229. In the case of RCPRGTDHCQLSRVFGLVHG, the growth estimate is reported as < -0.25. For CWGRSTTVIRYTAFKPTSWG, the growth estimate was < -0.25. VIMSPGFRNR was tested, and the growth estimate was < -0.25. With KNKRGRVRLRSNSFFIMSSG the growth estimate was < -0.25. In the case of AGPFDHHSGVSAGLLGSVRR, the growth estimate is reported as < -0.25. For RGVAPPKFEIVSP, the growth estimate was < -0.25. CVSTFPVKSLDYTRRGCAGR was tested, and the growth estimate was < -0.25. For TRQTRVRRRGTVLGLSSTAD, the growth estimate was < -0.25. For LLQNLAKGNDWSWHVCWNIR, the growth estimate was < -0.25. In the case of HRYLLASGGSPEKASQGVLR, the growth estimate is reported as < -0.25. With VLI the growth estimate was < -0.25. For RVLGSTSK, the growth estimate was < -0.25. QDPGLGHAEKYVPEWPISSG gave a growth estimate of -0.243. For SQLYQQRPNLRCTCRVWAPG, the growth estimate was < -0.25. With RSQESESRF the growth estimate was < -0.25. For VRFKNDLWVRSLQQLDGSGA, the growth estimate was < -0.25. For WPGRIRSNYVRYHLFLWSGG, the growth estimate was < -0.25. For VTAEQTRARYGSVRVGTKGH, the growth estimate was < -0.25. Substance IMYAWFDPPRSKFCPGALLA has a growth estimate of -0.0077. IAGFFPQGP was tested, and the growth estimate was < -0.25. With AVKWIDTPVPRATISV the growth estimate was < -0.25. For ADGTRNSIAGALSAIP, the growth estimate was < -0.25. In the case of STLNAAITAVMGRLVSPSQR, the growth estimate is reported as < -0.25. For VLTALGSGARLPGMDGVWTD, the growth estimate was < -0.25.
